This note sets out measurements from publication doi:10.1101/636324.

Chains of the proteins cited; added tags and fusions are not shown. Residues count along the entry.
UniProt Q9LX66, residues 25-830: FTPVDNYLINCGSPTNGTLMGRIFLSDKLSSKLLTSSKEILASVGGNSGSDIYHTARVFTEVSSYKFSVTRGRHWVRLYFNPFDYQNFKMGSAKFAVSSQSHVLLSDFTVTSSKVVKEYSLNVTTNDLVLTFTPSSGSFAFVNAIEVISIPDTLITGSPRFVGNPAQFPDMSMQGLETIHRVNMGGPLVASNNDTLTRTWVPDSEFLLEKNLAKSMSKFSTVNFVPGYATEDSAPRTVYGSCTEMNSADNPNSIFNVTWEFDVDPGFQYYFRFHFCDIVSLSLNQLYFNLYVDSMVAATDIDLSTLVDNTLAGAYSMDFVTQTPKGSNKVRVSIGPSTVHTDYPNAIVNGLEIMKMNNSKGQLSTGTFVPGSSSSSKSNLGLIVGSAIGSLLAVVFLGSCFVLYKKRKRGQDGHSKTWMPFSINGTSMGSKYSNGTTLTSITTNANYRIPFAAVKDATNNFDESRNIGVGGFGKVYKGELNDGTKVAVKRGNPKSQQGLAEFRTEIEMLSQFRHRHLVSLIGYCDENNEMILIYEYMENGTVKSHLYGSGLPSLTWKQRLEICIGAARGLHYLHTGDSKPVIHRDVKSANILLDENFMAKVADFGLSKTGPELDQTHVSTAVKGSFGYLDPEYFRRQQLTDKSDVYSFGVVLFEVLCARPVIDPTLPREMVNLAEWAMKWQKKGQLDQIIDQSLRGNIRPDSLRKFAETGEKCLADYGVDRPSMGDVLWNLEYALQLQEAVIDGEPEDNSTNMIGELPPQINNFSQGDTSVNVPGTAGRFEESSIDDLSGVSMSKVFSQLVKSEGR
UniProt Q8W4L3: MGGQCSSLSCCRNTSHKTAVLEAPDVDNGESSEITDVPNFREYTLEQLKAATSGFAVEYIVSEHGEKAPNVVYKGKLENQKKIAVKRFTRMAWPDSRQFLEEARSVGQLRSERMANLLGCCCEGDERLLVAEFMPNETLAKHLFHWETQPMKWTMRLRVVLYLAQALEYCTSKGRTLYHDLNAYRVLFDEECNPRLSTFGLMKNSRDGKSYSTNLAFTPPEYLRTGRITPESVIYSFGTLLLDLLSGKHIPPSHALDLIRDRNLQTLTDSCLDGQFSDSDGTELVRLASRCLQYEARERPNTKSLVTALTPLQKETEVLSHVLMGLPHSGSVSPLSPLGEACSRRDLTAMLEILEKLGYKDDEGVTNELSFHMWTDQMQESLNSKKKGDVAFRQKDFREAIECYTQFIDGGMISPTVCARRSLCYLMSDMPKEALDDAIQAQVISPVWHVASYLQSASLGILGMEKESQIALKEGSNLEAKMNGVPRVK
UniProt Q8S307: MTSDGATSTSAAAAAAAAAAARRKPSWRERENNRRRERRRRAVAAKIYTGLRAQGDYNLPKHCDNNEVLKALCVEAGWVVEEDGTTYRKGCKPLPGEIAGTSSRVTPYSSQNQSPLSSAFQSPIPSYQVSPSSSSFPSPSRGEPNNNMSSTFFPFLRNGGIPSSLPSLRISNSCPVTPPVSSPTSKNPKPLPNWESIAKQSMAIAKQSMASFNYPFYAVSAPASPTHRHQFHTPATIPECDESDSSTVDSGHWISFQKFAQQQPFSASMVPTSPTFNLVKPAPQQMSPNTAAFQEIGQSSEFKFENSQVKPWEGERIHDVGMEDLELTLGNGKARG

Holding throughout (test): proximity labelling
Experiment [1] concerns the target T1, BIN2-YFP-TbID (Arabidopsis) (UniProt Q39011).
T1 sequence: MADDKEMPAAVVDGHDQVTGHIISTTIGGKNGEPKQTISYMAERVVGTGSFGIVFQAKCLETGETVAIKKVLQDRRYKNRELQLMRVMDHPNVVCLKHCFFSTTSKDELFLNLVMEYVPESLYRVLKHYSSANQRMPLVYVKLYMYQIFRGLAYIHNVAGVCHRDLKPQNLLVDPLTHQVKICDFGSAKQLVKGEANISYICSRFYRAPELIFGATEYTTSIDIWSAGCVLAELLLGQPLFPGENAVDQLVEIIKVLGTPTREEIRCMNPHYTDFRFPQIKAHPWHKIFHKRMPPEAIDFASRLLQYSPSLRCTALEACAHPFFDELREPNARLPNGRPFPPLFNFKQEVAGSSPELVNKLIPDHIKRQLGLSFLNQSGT

The target of experiment [2] is T2, PP2AB’α (ATB’-α)-YFP-TbID (Arabidopsis) (UniProt O04375).
T2 sequence: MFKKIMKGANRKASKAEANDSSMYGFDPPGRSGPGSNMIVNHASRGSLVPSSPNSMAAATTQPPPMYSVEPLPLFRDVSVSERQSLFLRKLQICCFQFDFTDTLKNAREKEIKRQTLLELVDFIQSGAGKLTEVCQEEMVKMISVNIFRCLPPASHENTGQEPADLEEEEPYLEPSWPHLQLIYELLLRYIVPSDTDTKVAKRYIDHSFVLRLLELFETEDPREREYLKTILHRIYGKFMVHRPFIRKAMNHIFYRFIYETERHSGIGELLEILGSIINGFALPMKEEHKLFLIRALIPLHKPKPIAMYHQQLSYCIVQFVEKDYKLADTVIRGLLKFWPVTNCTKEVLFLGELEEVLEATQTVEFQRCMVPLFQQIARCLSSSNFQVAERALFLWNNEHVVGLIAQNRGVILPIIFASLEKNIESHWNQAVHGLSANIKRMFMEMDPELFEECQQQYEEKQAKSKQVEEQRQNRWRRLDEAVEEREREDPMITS

The target in experiment [3] is T3, PP2AB’ε (ATB’-ε)-YFP-TbID (Arabidopsis) (UniProt Q9SV41).
T3 sequence: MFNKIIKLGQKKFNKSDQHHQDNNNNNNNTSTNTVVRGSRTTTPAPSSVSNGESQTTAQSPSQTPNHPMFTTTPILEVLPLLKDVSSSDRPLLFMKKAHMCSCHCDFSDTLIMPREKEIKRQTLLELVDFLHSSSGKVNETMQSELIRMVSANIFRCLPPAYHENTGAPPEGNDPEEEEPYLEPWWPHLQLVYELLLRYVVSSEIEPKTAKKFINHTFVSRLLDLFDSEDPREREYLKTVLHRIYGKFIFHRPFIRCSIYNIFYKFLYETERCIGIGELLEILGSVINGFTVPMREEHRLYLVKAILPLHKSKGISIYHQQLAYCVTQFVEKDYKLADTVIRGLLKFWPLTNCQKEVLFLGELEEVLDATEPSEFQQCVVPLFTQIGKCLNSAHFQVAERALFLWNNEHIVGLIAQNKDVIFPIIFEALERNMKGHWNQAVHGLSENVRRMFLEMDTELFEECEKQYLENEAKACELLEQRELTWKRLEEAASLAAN

Experiment [4] addresses T1, BIN2-YFP-TbID (Arabidopsis). This is another data set of the same source.

Read-outs that look alike come from different tables or passages of the source. These are yes or no findings as the source states them, for the method shown. In cells and extracts the contact can be indirect. A yes stands for co-enrichment or nearness to the bait. Other partners may have been found. For part of these data: No binding means not detected with the bait. Tags and fused reporters may be left off the sequences shown.

On to “receptor kinase HERK1 (from UniProt Q9LX66 25-830)”, for which the binding result in experiment [1] is “binds”.
On the same count and under the same terms, the value for BSK3 (from UniProt Q8W4L3 1-489) was “binds”.
As to “BZR1 fused with 4xMyc-6His tag (from UniProt Q8S307 1-336)”, the binding result in experiment [2] is on record as “binds”; in experiment [3], “no binding”.

B1: MLP34 (protein, UniProt Q9SSK7 1-316)
chain: MAKTEAPSLVGKLETEVEIKASAGQFHHMFAGKPHHVSKASPGNIQSCDLHEGDWGTVGSIVFWNYVHDGEAKVAKERIEAVEPEKNLITFRVIEGDLMKEYKSFLITIQVTPKHGGPGSIVHWHLEYEKISDEVAHPETLLQFCVEVSQEIDEHLLSEEEEVKTTETLETEVEIKASAEKFHHMFAGKPHHVSKATPGNIQSCDLHEGDWGTVGSIVFWNYVHDGEAKVAKERIEAVDPEKNLITFRVIEGDLMKEYKSFVITIQVTPKHGGSGSVVHWHFEYEKINEEVAHPETLLQFAVEVSKEIDEHLLAEE
Regarding B1, in experiment [4], the binding entry was “no binding”.

B2: NONPHOTOTROPIC HYPOCOTYL3 (protein, UniProt Q9FMF5 1-746)
chain: MMWESESDGGVGVGGGGGREYGDGVLSSNKHGGVKTDGFELRGQSWFVATDIPSDLLVKIGDMNFHLHKYPLLSRSGKMNRLIYESRDPDPTILILDDLPGGPEAFELASKFCYGVPVDLTATNISGLRCAAEYLEMTEDLEEGNLIFKTEAFLSYVVLSSWRDSILVLKSCEKLSPWAENLQIVRRCSESIAWKACSNPKGIRWAYTGKAPSPSTTNFAGSSPRWNESKDSSFYCSPSRNTNSQPVPPDWWFEDVSILRIDHFVRVITAIKVKGMRFELLGAVIMHYAGKWLPGLIKEGGVAIAPAMSSAIGGGLGLGGDEMSISCGSNSSGGSSGPDWKGGLHMVLSAGKTNGHQDSVACLAGLGISPKDQRMIVESLISIIPPQKDSVTCSFLLRLLRAANMLKVAPALITELEKRVGMQFEQATLQDLLIPGYNNKGETMYDVDLVQRLLEHFLVQEQTEGSSPSRMSPSPSQSMYADIPRGNNNNGGGGGGNNQNAKMRVARLVDSYLTEVARDRNLPLTKFQVLAEALPESARTCDDGLYRAIDSYLKAHPTLSEHERKRLCRVMDCQKLSMDACMHAAQNERLPLRVVVQVLFSEQVKISNALANTSLKESTTLGEAMGTYQPMIPNRKTLIEATPQSFQEGWAAAKKDINTLKFELETVKTKYVELQNEMEVMQRQFEKTGKVKNTPSSSAWTSGWKKLSKLTKMSGQESHDISSGGEQAGVDHPPPRKPRRWRNSIS
Turning to B2, the binding result in experiment [4] is listed as “binds”.
